Measured values reported in patent publication US20240217946A1, “ANTIDEPRESSANT AND ANXIOLYTIC SUBSTITUTED CINNAMAMIDE COMPOUND” (TASLY PHARMACEUTICAL GROUP CO., LTD., priority 2021, published 2024).
Entries after “also recorded” stand apart in the source; their conditions may differ. At least one compound was matched to its structure with a doubt left.

System: pyramidal neurons in prefrontal PrL brain area
Test: Brain slice electrophysiology, sEPSC of mPFC pyramidal neurons
Assay type: cell-based, mice
Conditions: antagonist at working concentration 10 μM
Text: 2) Brain Slice Electrophysiological Experiment: For Detecting Effect of Compound M2 on mPFC Excitatory Synaptic Transmission • Animal: neonatal mice C57 BL/6J (20-30 days). • Instrument: vibratome (Leica), brain slice electrophysiological system (Axon). • Brain slice electrophysiological experiment method • SEPSC experiment method: Neonatal C57 mice were anesthetized and then perfused with artificial cerebrospinal fluid (ACSF). After decapitation, brain tissue was taken quickly and sliced by vibratome, with a thickness of a brain slice being 300 μm. After the brain slices were incubated at 28 °C for 1 h, whole-cell recordings of mPFC pyramidal neurons were made using a voltage clamp (−70 mV) through a brain slice electrophysiological system. The baseline recording time was 6 min, and then a drug to be tested was added through a perfusion system (the drug was dissolved using ACSF), and the recording time after adding the drug was 6-10 min. Recorded data was analyzed using Minianalysis software, and effects of the drug to be tested on sEPSC frequency and amplitude of medial prefrontal pyramidal neurons in C57 mice were compared.
All data analysis was done using spss data processing software, and data was expressed by Mean±s.e.m. […]

Compound: CN1CCc2cc(Cl)c(O)cc2[C@@H](c2ccccc2)C1 [SCH23390]
- blocking of the enhancement effect of 150 μM compound M2 on sEPSC distribution frequency: can block the enhancement effect; also recorded: cannot block the enhancement effect
